Hit rate of the full screen: of about 350,000 compounds, about 220 (0.063%) were called active. The shares of active, inactive and inconclusive entries below differ from those in the screen. Calls come from the whole dose curve; as a rule, active = well fitted activation curve with a large enough effect; inconclusive = small, poorly fitted or top-dose-only effect; inactive = no such curve, though single readings can be large or run the other way. Potencies beside an inconclusive call are fits to weak or partial responses and may not hold up.
Assay: qHTS for Activators of Integrin-Mediated Alleviation for Muscular Dystrophy; note: nearly all actives have a fitted effect of over 60% in size;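 for activation: 100% = response of the positive control SU9516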
Conditions: alpha7betagal myoblasts, beta-gal FDG fluorescence, 48 h; activation: at 38.3 µM (top of the series)
In short: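 Alpha7betagal+/- myoblasts (passage 13) were plated 16-24 hr, then exposed to compounds (1:260 dilution of DMSO stock) for 48 hours at 37C. After MPER lysis, β-galactosidase reporter activity was read as FDG fluorescence (ex 480/em 540) after 30 minutes.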
Potency is the fitted concentration of half-maximal effect.

Potency, inconclusive:
CNC(=O)N1CCC(C(=O)c2c(C)c(C)c(C)c(C)c2C)CC1 3.16 µM [activator, single point]
COc1ccc(NC(=O)n2ncc3c(C)cccc32)cc1 3.98 µM [activator, single point]
CCCCCC(=O)NCc1c(C(F)(F)F)nn(C)c1N1CCOCC1 22.4 µM [activator, single point]
Cc1ccc2c(c1)C(=O)CCCCC(=O)N2 8.91 µM [activator, partial curve, poor fit]
C=CCn1c(SCC(=O)Nc2cccc(S(N)(=O)=O)c2)nnc1C1CCCCC1 3.16 µM [activator, partial curve, poor fit]
CCOC(=O)c1c(C)[nH]c(C(=O)NCc2ccccn2)c1C 28.2 µM [activator, single point]
O=C(CN1CCN(Cc2ccc(F)cc2Cl)CC1)NCc1ccccc1 2 µM [activator, partial curve, poor fit]
CCCCNC(=O)c1cc(C)no1 10 µM [activator, partial curve]
Cc1ccc(C(=O)O/N=C(\c2ccccc2)c2cccnc2)cc1 5.01 µM [activator, single point]
NC(=NC(=O)c1ccc(OCC(F)(F)F)nc1)c1ccc(Cl)cc1 5.01 µM [activator, single point]
O=C(NCCCO)C(=O)c1c(-c2ccccc2)cc2ccccn12 3.16 µM [activator, single point]
O=C(CCC1CCCN(Cc2ccc(O)c(Cl)c2)C1)NCc1ccccc1F (stereo not given) 2.82 µM [activator, partial curve, poor fit]
Cc1c(C(=O)N2CCCCC2)c(S(=O)(=O)N2CCN(c3ccc(Cl)cc3)CC2)c(C)n1C 1.41 µM [activator, partial curve, poor fit]
COc1ccc2c(c1OC)C(=O)OC2Nc1ccc(S(=O)(=O)N=C(N)N)cc1 (stereo not given) 1.78 µM [activator, partial curve, poor fit]
CCN(CC)Cc1c(O)ccc2c(=O)c(-c3ccccc3Cl)coc12 3.55 µM [activator, single point]
COC(=O)c1ccc(CSCC(=O)Nc2cc(OC)cc(OC)c2)o1 1.78 µM [activator, partial curve, poor fit]
O=C(CCCc1ccccc1)Nc1ccccn1 3.16 µM [activator, single point]
O=C(Nc1ccccn1)c1ccc(S(=O)(=O)N2CCCC2)cc1 35.5 µM [activator, partial curve, poor fit]
O=C(c1cc2nc(-c3ccco3)cc(C(F)(F)F)n2n1)N1CCCc2ccccc21 6.31 µM [activator, partial curve, poor fit]
CN(C)c1cccc(C(=O)N/N=C/c2ccoc2)c1 10 µM [activator, partial curve, poor fit]
Cc1cccc(-n2cnc3c(sc4nc(N5CCOCC5)c5c(c43)CCCC5)c2=O)c1 11.2 µM [activator, single point]
CC(=O)Nc1ccc(S(=O)(=O)NCCNS(=O)(=O)c2ccc(NC(C)=O)cc2)cc1 10 µM [activator, single point]
COc1ccc(NC(=O)Nc2ccc(Br)cn2)cc1OC 28.2 µM [activator, single point]
Cc1ccc(/C=C(\C#N)C(=O)NCC2CCCO2)o1 (stereo not given) 0.447 µM [activator, full curve, poor fit]
Cc1cccn2c(=O)c(C=O)c(Sc3ncccn3)nc12 28.2 µM [activator, single point]
CCOc1ccc(Cl)cc1S(=O)(=O)N1CCC(C(=O)NCC2CCCO2)CC1 (stereo not given) 7.94 µM [activator, single point]
O=C(N/N=C/c1cccnc1)c1[nH]ncc1Br 1.78 µM [activator, partial curve, poor fit]
CC(C)(C)NC(=O)c1ccc2c(c1)CCO2 6.31 µM [activator, partial curve, poor fit]
O=C(NCCCC1CCCC1)C1CCC(=O)N(Cc2ccc(Cl)cc2)C1 (stereo not given) 11.2 µM [activator, partial curve, poor fit]
Nc1c(C(=O)N2CCCCC2)sc2nc3c(cc12)CCCC3 28.2 µM [activator, single point]
COc1ccc(OC)c(-c2csc(NC(=O)C3c4ccccc4Oc4ccccc43)n2)c1 3.16 µM [activator, partial curve, poor fit]
O=C(O)c1ccc(Cl)c(S(=O)(=O)NCC2CCCO2)c1 (stereo not given) 2.82 µM [activator, partial curve, poor fit]
O=C(CSc1nnc(CNC(=O)c2ccco2)o1)Nc1ccccc1F 12.6 µM [activator, partial curve, poor fit]
O=C(C[n+]1cccc(NC(=O)c2ccccc2)c1)c1cccc([N+](=O)[O-])c1 28.2 µM [activator, single point]
CCCn1c2ccccc2c2cnn(CC(=O)NCCCOC)c(=O)c21 10 µM [activator, partial curve, poor fit]
O=C(Cc1ccc(F)cc1)NCCc1cnc[nH]1 2.24 µM [activator, single point]
COc1ccccc1C(=O)Nc1nnc(-c2ccccc2)s1 7.08 µM [activator, partial curve, poor fit]
C=CCC(=O)N1CCCC(CCC(=O)NCc2ccccc2F)C1 (stereo not given) 4.47 µM [activator, single point]
COc1ccc(NS(=O)(=O)c2c(C)[nH]c(C)c2C(=O)N2CCCCC2)cc1Cl 28.2 µM [activator, single point]
O=C(Cn1nnc(-c2ccccc2)n1)N/N=C/c1ccc(-c2ccc(Cl)cc2)o1 2.24 µM [activator, partial curve, poor fit]
Cc1cnc(NC(=O)c2cc3ccccc3o2)s1 5.01 µM [activator, single point]
CCC(C(=O)OC)n1cnc2c(oc3ccccc32)c1=O (stereo not given) 14.1 µM [activator, single point]
CCCN(C(=O)c1cc2c(s1)CCC2)c1c(N)n(Cc2ccccc2)c(=O)[nH]c1=O 1.41 µM [activator, single point]
Cc1c(Cl)cccc1NC(=S)NCCC(c1ccccc1)c1ccccc1 2 µM [activator, single point]
O=C(NCCCN1CCOCC1)c1cccc(S(=O)(=O)Nc2ccc(F)cc2)c1 2.24 µM [activator, partial curve, poor fit]
O=C(CCc1nnc2ccc(NCc3ccco3)nn12)Nc1cccc(F)c1 5.01 µM [activator, single point]
COc1ccc(NC(=O)N(C)C[C@H]2Oc3ccc(NC(=O)Cn4cnnn4)cc3C(=O)N([C@H](C)CO)C[C@@H]2C)cc1 3.16 µM [activator, single point]

activation, inactive:
CN1N=C(C(=O)NC2CCCc3c2cnn3-c2ccc(F)cc2F)CCC1=O (stereo not given) 19.1%
Cc1ccc(S(=O)(=O)N/N=C/c2ccc3nccnc3c2)cc1 11.9%
COC(=O)CN(c1ccc(C)cc1)S(=O)(=O)c1ccc2c(c1)n(C)c(=O)c(=O)n2C -4.18%
Cc1ccc(C2=Nc3ccccc3N=C(C(Cl)Cl)C2)cc1 5.14%
CC(C)(C)C(=O)Nc1sc2c(c1C#N)CCC2 -11.2%
COc1ccc(CNc2cc(C)nc3ccc(OC)cc23)cc1 -46.1%
O=C(c1cc(-c2cccs2)nc2ccccc12)N1CCN(c2ccccc2)CC1 -4.13%
Fc1ccc(N/N=C/c2ccncc2)c(F)c1 3.74%
CC(=O)Oc1ccc(Cl)cc1CN(C(C)=O)C1CCCCC1 -20.8%
C(=N\n1cnnc1)/c1cccc(Oc2ccccc2)c1 -8.14%
COc1ccc(C2CC2/C(=N/O)c2ccccc2)cc1 (stereo not given) 0.173%
Cc1cccc(-n2nc3c(c2NC(=O)c2ccc4c(c2)OCO4)CS(=O)(=O)C3)c1C 28.6%
O=C(NCCN1CCCCC1)Nc1ccc(F)cc1 16.3%
CCNc1nc(NCC)n2c(SCC(=O)Nc3ccc(OC)c(OC)c3)nnc2n1 -1.14%
COc1ccccc1N1CCN(c2nnc(-c3ccc(F)cc3)c3ccccc23)CC1 -9.24%
CC(C)(C)NC(=S)NNC(=O)[C@H]1C[C@@H]1c1ccccc1 -0.959%
Cc1ccc(-c2nc3cnccn3c2Nc2ccc3c(c2)OCO3)cc1 -3.53%
CCCCn1c(N)c(S(=O)(=O)c2ccc(C)cc2)c2nc3ccccc3nc21 -56.3%
COc1cccc(C(=O)NC2CCCN(C3Cc4ccccc4C3)C2)c1OC (stereo not given) 6.89%
Cc1ccc(Cl)cc1NC(=S)N(Cc1ccco1)C(C)c1cccs1 (stereo not given) 0%
CCOc1ccc(C(=O)NC(=S)Nc2ccccc2N2CCC(C)CC2)cc1[N+](=O)[O-] 3.6%
COc1ccc(O)c(-c2cc(-c3cccs3)[nH]n2)c1 33.8%

Ordered by length of the SMILES (largest number first): some entries from above
activation, inactive:
O=C(c1cc(-c2cccs2)nc2ccccc12)N1CCN(c2ccccc2)CC1 -4.13%
Cc1ccc(-c2nc3cnccn3c2Nc2ccc3c(c2)OCO3)cc1 -3.53%
COc1ccc(CNc2cc(C)nc3ccc(OC)cc23)cc1 -46.1%
O=C(NCCN1CCCCC1)Nc1ccc(F)cc1 16.3%

Next part:

activation, inconclusive:
Cc1ccnc(S(=O)(=O)Cc2ccc([N+](=O)[O-])cc2)n1 -64.3% [activator]

Reference: PubChem BioAssay AID624291 (National Center for Advancing Translational Sciences (NCATS), 2012)
